In data set [1] the test system is human alpha-thrombin (human). The data set can be described thus: sandwich electrochemical aptasensor (differential pulse ASV), detection strand. Particulars: thrombin captured on Apt1-NH2, linear 1 fM-10 nM, LOD 0.9 fM (not a Kd); 50 mM Tris-HCl, 100 mM NaCl, 5 mM KCl, 1 mM MgCl2, 5 mM CaCl2, pH 7.4; BSA-blocked electrode; 37 C, 2 h per binding step; commercial protein; label: CdS quantum dot conjugate; folded or branched DNA.

Data set [2] relates to human alpha-thrombin (human). As to the kind of experiment: sandwich electrochemical aptasensor (differential pulse ASV), capture strand. Particulars: with Apt2-CdS as detection strand, linear 1 fM-10 nM, LOD 0.9 fM (not a Kd); 5'-NH2-(CH2)6; 50 mM Tris-HCl, 100 mM NaCl, 5 mM KCl, 1 mM MgCl2, 5 mM CaCl2, pH 7.4; BSA-blocked electrode; 37 C, 2 h per binding step; commercial protein; folded or branched DNA.

Construct, isoform or probe ends are uncertain for at least one entry. At least one verdict was read from the data and is not stated in words by the source.

With “TCTCTCTCTCTCTCTCTCTCAGTCCGTGGTAGGGCAGGTTGGGGTGACT [Aptamer-II (Apt2)]”, the binding result in data set [1] is on record as “binds”. As for “TTTTTTTTTTGGTTGGTGTGGTTGG [Aptamer-I (Apt1-NH2)]”, the binding result in data set [2] is “binds”.

For the origin of these results see publication PMC5038621.
